Data from patent US20070270484A1, “3'-N-Substituted-3-O-Substituted Erythronolide a Derivatives” (priority 2003, published 2007).

Key:
Type in all cases: cell-based
S. pneum 1251 (mef) = assay: MIC, agar incorporation method (NCCLS agar dilution method); settings: Streptococcus pneumoniae, read-out: Minimum Inhibitory Concentrations, S. pneum 1251 (mef)
Procedure: (§1) Drug dilutions and the agar plates are prepared by NCCLS method. Inoculum is prepared by direct colony suspensions in normal saline and adjusted to 0.5 McFarland turbidity and subsequently diluted as per NCCLS guidelines in order to obtain 10^4 CFU/spot. CFU/ml of a few randomly selected cultures is performed. The cultures are replicated on the agar plates using replicator (Denley's multipoint). The plates are incubated at 35±2° C. and in 5% CO2 atmosphere (for respiratory and Haemophilus strains) for 18-24 hours at 35±2° C. Minimum inhibitory concentrations (MIC) are determined after 18-24 hours. Q. C. strains are also included in each run of the study. The cation content of Mueller Hinton agar is checked by performing disk […] of 10 μg gentamicin disk against Pseudomonas aeroginosa ATCC 27853. The zone of inhibition should fall between 16-21 mm. The concentration of drug at which there is complete disappearance of growth spot or formation of less than 10 colonies per spot is considered as MIC.

S. pneum AB 34 (mef) = assay: as above; settings: Streptococcus pneumoniae, read-out: Minimum Inhibitory Concentrations, S. pneum AB 34 (mef)
Procedure: as §1

S. pneum 1294 (mef) = assay: microbe, parasite or virus in culture; settings: Streptococcus pneumoniae, read-out: Minimum Inhibitory Concentrations, S. pneum 1294 (mef)
Procedure: as §1

Measured: MIC

CCC[C@@H]1C[C@@H](C(=O)N[C@@H]([C@H]2O[C@H](SC)[C@H](O)[C@@H](O)[C@H]2O)[C@H](C)Cl)N(C)C1 [Cl, Clindamycin, reference compound]
0.03 µg/mL: all assays above
